“And” between values parts separate entries of the source, which are not always exact repeats. Equal values may be shown once. Where a name gives a salt, the structure may show the parent alone. This is one part of the list. This is a noisy data set.
Test system: Salmonella enterica serovar Typhimurium ST313 D23580
Assay: normalized bacterial growth (OD600 20 h minus 0 h, interquartile-mean normalized) (fraction of plate interquartile mean); higher = more bacterial growth (less inhibition)
Conditions: LPM (pH 5.8, low phosphate, low Mg2+), concentration: 10 µM, temperature: 37 °C

For `Cc1c(C(N)=O)cc([N+](=O)[O-])cc1[N+](=O)[O-]`, which normalized bacterial growth is on record?
Its normalized bacterial growth is 1.03.

`C=C[C@H]1CN2CC[C@H]1C[C@@H]2[C@@H](O)c1ccnc2ccc(OC)cc12` was tested. Which normalized bacterial growth did it give?
Its normalized bacterial growth is 1.16 and 0.939.

With `C=C[C@H]1CN2CC[C@H]1C[C@@H]2[C@@H](O)c1ccnc2ccc(OC)cc12` [Quinidine sulfate] as the molecule, how does the normalized bacterial growth read?
The normalized bacterial growth was 0.838.

Which normalized bacterial growth does the source give for `C=C[C@H]1CN2CC[C@H]1C[C@@H]2[C@@H](O)c1ccnc2ccc(OC)cc12` [Quinidine hydrochloride monohydrate] here?
Its normalized bacterial growth is 1.08.

With `CNC(=O)[C@H]1O[C@@H](n2cnc3c(NCc4cccc(I)c4)ncnc32)[C@H](O)[C@@H]1O` as the molecule, how does the normalized bacterial growth read?
Its normalized bacterial growth is 0.897.

Which normalized bacterial growth does the source give for `COc1ccc(C2C(=O)c3ccccc3C2=O)cc1` here?
Its normalized bacterial growth is 1.11.

How did the normalized bacterial growth turn out when `Cc1cccc(C)c1NC(=O)C1CCCCN1C` (stereo not given) was run?
The normalized bacterial growth was 0.808.

With `COc1cc(/C=C/C(=O)N2CCC=CC2=O)cc(OC)c1OC` as the molecule, how does the normalized bacterial growth read?
Its normalized bacterial growth is 0.876.

`CN(C)c1ccc2nc3ccc(=[N+](C)C)cc-3sc2c1` was tested. Which normalized bacterial growth did it give?
The normalized bacterial growth was 0.793.

For `COc1cc(OC)c2c(OC)c(-c3ccc4c(c3)OCO4)c(=O)oc2c1`, which normalized bacterial growth is on record?
Its normalized bacterial growth is 0.849.

With `CC(=O)Oc1ccc2c(c1)CC[C@@H]1[C@@H]2CC[C@]2(C)[C@@H](OC(C)=O)CC[C@@H]12` as the molecule, how does the normalized bacterial growth read?
The normalized bacterial growth was 0.837.

With `Cc1ncc([N+](=O)[O-])n1CC(O)CCl` (stereo not given) as the molecule, how does the normalized bacterial growth read?
Its normalized bacterial growth is 1.21.

For `N#CC(=C(/N)Sc1ccccc1N)/C(C#N)=C(/N)Sc1ccccc1N`, which normalized bacterial growth is on record?
Its normalized bacterial growth is 1.24.

With `NS(=O)(=O)c1cccc2c1c([N+](=O)[O-])cc1nc(O)c(O)nc12` [NBQX disodium] as the molecule, how does the normalized bacterial growth read?
Its normalized bacterial growth is 1.11.

How did the normalized bacterial growth turn out when `CC(C)CCCC(C)C1CCC2C3CCC4CCCCC4(C)C3CCC12C` (stereo not given) was run?
The normalized bacterial growth was 0.899.

For `NC(N)=NCc1cccc(I)c1` [m-Iodobenzylguanidine hemisulfate], which normalized bacterial growth is on record?
Its normalized bacterial growth is 1.07.

For `COc1cc2c(cc1OC)C(=O)C(CC1CCN(Cc3ccccc3)CC1)C2` (stereo not given), which normalized bacterial growth is on record?
The normalized bacterial growth was 1.25.

How did the normalized bacterial growth turn out when `CCCCC(CC)CN1CN(CC(CC)CCCC)CC(C)(N)C1` (stereo not given) [Hexetidine] was run?
Its normalized bacterial growth is 0.64.

Which normalized bacterial growth does the source give for `O=C(CCCN1CCC(O)(c2ccc(Br)cc2)CC1)c1ccc(F)cc1` here?
The normalized bacterial growth was 0.988.

With `CNCC[C@H](Oc1cccc2ccccc12)c1cccs1` as the molecule, how does the normalized bacterial growth read?
Its normalized bacterial growth is 1.04.

For `CC1CCC(C(C)C)C(O)C1` (stereo not given), which normalized bacterial growth is on record?
The normalized bacterial growth was 1.27.

`CO[C@@]1(NC(=O)Cc2cccs2)C(=O)N2C(C(=O)O)=C(COC(N)=O)CS[C@@H]21` was tested. Which normalized bacterial growth did it give?
The normalized bacterial growth was 1.4.

For `COc1cc(Cc2cnc(N)nc2N)cc(OC)c1OC` [Trimethoprim], which normalized bacterial growth is on record?
The normalized bacterial growth was 1.21.

`NC(=O)C(=O)O` [Sodium Oxamate] was tested. Which normalized bacterial growth did it give?
The normalized bacterial growth was 1.13.

Which normalized bacterial growth does the source give for `COc1cc(O)c(C(=O)/C=C/c2ccccc2)c(O)c1` here?
The normalized bacterial growth was 1.24.

For `FC(F)(F)c1cc(COC2CCCNC2c2ccccc2)cc(C(F)(F)F)c1` ["L-733,060 hydrochloride"], which normalized bacterial growth is on record?
Its normalized bacterial growth is 0.868.

`C=CCc1ccc(OC(=O)c2ccccc2)c(OC)c1` was tested. Which normalized bacterial growth did it give?
Its normalized bacterial growth is 0.434.

Which normalized bacterial growth does the source give for `COCC1=C(C(=O)OC(C)OC(=O)OC(C)C)N2C(=O)[C@@H](NC(=O)/C(=N\OC)c3csc(N)n3)[C@H]2SC1` (stereo not given in full) here?
Its normalized bacterial growth is 0.988.

Which normalized bacterial growth does the source give for `CN(C)c1cc2c(Nc3ccc4c(cnn4Cc4ccccc4)c3)ncnc2cn1` here?
Its normalized bacterial growth is 0.668.

`CCN(CC)CCOC(=O)C(c1ccccc1)C1CCCCC1` (stereo not given) was tested. Which normalized bacterial growth did it give?
The normalized bacterial growth was 0.774.

How did the normalized bacterial growth turn out when `Nc1ccc(-c2ccc3ccccc3n2)cc1` [BF-170 hydrochloride] was run?
The normalized bacterial growth was 0.973.

`CC[C@H]1OC(=O)[C@H](C)[C@@H](O[C@H]2C[C@@](C)(OC)[C@@H](O)[C@H](C)O2)[C@H](C)[C@@H](O[C@@H]2O[C@H](C)C[C@H](N(C)C)[C@H]2O)[C@](C)(OC)C[C@@H](C)C(=O)[C@H](C)[C@@H](O)[C@]1(C)O` was tested. Which normalized bacterial growth did it give?
The normalized bacterial growth was 0.77.

Which normalized bacterial growth does the source give for `C[C@H]1COC2=C1C(=O)C(=O)c1c2ccc2c1CCCC2(C)C` here?
The normalized bacterial growth was 1.21.

How did the normalized bacterial growth turn out when `CC(=O)SCC[N+](C)(C)C` [Acetylthiocholine chloride] was run?
The normalized bacterial growth was 0.979.

For `O=C(Nc1nc2ccccc2n1CCN1CCOCC1)c1cccc([N+](=O)[O-])c1` [IRAK-1/4 Inhibitor I], which normalized bacterial growth is on record?
The normalized bacterial growth was 1.05.

How did the normalized bacterial growth turn out when `CCCCC1=NC2(CCCC2)C(=O)N1Cc1ccc(-c2ccccc2-c2nnn[nH]2)cc1` was run?
Its normalized bacterial growth is 0.805.

With `CC(C)COC(=O)OCN1C(=O)CN(CCN2CC(=O)N(COC(=O)OCC(C)C)C(=O)C2)CC1=O` [Sobuzoxane] as the molecule, how does the normalized bacterial growth read?
The normalized bacterial growth was 0.916.

`CCCCC[C@H](O)/C=C/[C@H]1C=CC(=O)[C@@H]1CCCCCCC(=O)O` was tested. Which normalized bacterial growth did it give?
The normalized bacterial growth was 0.84.

With `CCCCOC(=O)c1ccc(N)cc1` as the molecule, how does the normalized bacterial growth read?
Its normalized bacterial growth is 0.893.

For `O=C(Nc1ccc(C(=O)O)c(O)c1)c1ccccc1`, which normalized bacterial growth is on record?
Its normalized bacterial growth is 1.12.

— the supplement of paper PMC10398353
